These are yes or no findings as the source states them, for the method shown. Some binding calls cover weakened binding; strength is not graded here.
Target: T1, MIP-1α/RANTES receptor (probably CC CKR-1) on butyric acid differentiated HL-60 cells (human) (UniProt P32246)
T1 sequence (looked up): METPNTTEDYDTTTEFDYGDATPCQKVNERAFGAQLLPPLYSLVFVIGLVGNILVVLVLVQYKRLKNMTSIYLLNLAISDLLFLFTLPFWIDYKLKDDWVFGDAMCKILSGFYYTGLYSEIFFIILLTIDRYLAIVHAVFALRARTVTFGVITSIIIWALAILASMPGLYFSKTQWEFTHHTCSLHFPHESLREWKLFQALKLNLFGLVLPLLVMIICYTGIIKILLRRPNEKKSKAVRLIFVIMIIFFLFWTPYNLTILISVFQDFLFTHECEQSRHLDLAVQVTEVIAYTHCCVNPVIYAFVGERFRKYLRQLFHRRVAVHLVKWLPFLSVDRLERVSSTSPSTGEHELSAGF
Experiment: 0.1 nM 125I-MIP-1α binding to butyric acid differentiated HL-60 cells

By UniProt entry, the sequences of proteins in these tests, tags left out. Residues count along the entry.
UniProt P10147, residues 23-92: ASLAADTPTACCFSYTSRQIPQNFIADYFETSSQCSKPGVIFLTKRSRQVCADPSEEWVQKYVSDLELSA

“MIP-1α (from UniProt P10147 23-92) (ligand)” was tested, and the binding was “binds”.
